Here are results for two sequences from publication PMC9592637, “Functional characterization and transcriptional repression by Lacticaseibacillus paracasei DinJ-YafQ” (Applied Microbiology and Biotechnology, 2022).

For some of these results: The exact form of at least one protein or probe is not confirmed. For some of these results: At least one verdict rests on a figure or table, not on a statement of the authors.

The subject of data set [1] is RNA polymerase sigma-70 holoenzyme (Escherichia coli). In words: EMSA. To be noted: 200 nM RNAP, 5 mM Mg2+, 37 C, not displaced by DinJ-YafQ; EMSA: 2 nM DNA, 128 ng salmon sperm DNA in 10 uL, 50 mM Tris-HCl pH 7.5, 50 mM KCl, 5% glycerol, room temperature 10 min, 6% native PAGE in TBE; commercial protein; label: DY682 on both primers; probe letters rebuilt from the primers and the genome. A general note: Mobility shift assays separate free from complexed probe on a gel.

Data set [2] has as its system DinJ R13A (Lacticaseibacillus paracasei 4366). In words: EMSA. To be noted: complete loss of binding up to 1.5 uM; EMSA: 2 nM DNA, 128 ng salmon sperm DNA in 10 uL, 50 mM Tris-HCl pH 7.5, 50 mM KCl, 5% glycerol, room temperature 10 min, 6% native PAGE in TBE; recombinant protein; residues 1-89; protein details: N-terminal His6 (pET28b); label: DY682 on both primers; probe letters rebuilt from the primers and the genome.

The test system of data set [3] is DinJ + YafQ_pa4366. Briefly: EMSA. Conditions: KDapp, Hill n 2.4 ± 0.2, salmon sperm DNA competitor; EMSA: 2 nM DNA, 128 ng salmon sperm DNA in 10 uL, 50 mM Tris-HCl pH 7.5, 50 mM KCl, 5% glycerol, room temperature 10 min, 6% native PAGE in TBE; recombinant protein; protein details: N-terminal His6 (pET28b),none (pET11b); label: DY682 on both primers; probe letters rebuilt from the primers and the genome.

Data set [4] has as its system DinJ + YafQ_pa4366. In words: competition with a labelled probe. Conditions: versus 200 nM RNAP, RNAP band disappears with increasing DinJ-YafQ, 5 mM Mg2+; EMSA: 2 nM DNA, 128 ng salmon sperm DNA in 10 uL, 50 mM Tris-HCl pH 7.5, 50 mM KCl, 5% glycerol, room temperature 10 min, 6% native PAGE in TBE; recombinant protein; protein details: N-terminal His6 (pET28b),none (pET11b); label: DY682 on both primers; probe letters rebuilt from the primers and the genome.

Turning to “CGTCCTCAAGCTGCTCTTGTGTTAATGGTTTCTTTTTTGTGCTCATACGTTAAATCTATCACCGCAAGGGATAAATATCTAACACCGTGCGTGTTGACTATTTTACCTCTGGCGGTGATAATGGTTGCATGTACTAAGGAGGTTGTATGGAACAACGCATAACCCTGAAAGATTATGCAATGCGCTTTGGGCAAAC (double strand) [196-bp lambda PR promoter fragment]”, the binding result in data set [1] is “binds”.

For “GATCAACACGAATATTCAAGCGAGTTTCTTTCTTTGTGGCTGCCATTGCTAACCACTCCTTCCTATCTAACAACCTAATTATATCACGAATTATCCCAATGTAAACACAGCGGGATAACATCATGTGAGATGAATTCAACCGGATTTCTGGCTTTTTCTTCGCACAAATGGAAGCGTAACTGCCATCAGACGTT (double strand) [194-bp dinJ-yafQ promoter fragment]”, the figures for the Kd (in data set [2]; in the data set with DinJ + YafQ_pa4366 [3]) were greater than 1500 nM and 44 nM, respectively. For the same sequence, the binding result in the data set on DinJ + YafQ_pa4366 [4] is on record as “binds”.
